Reference: PubChem BioAssay AID504467 (National Center for Advancing Translational Sciences (NCATS), 2011)
Hit rate of the full screen: of about 330,000 compounds, about 7,700 (2.3%) were called active. This list was built around the results that the source calls inconclusive (neither active nor inactive); the mix of calls is not that of the screen. The call rests on the fitted dose curve; in most records, active means well fitted inhibition curve with a large enough effect; inconclusive means small, poorly fitted or top-dose-only effect, or effect the other way; inactive means flat fitted curve, though single readings scatter. Where the call is inconclusive, the potency comes from a doubtful curve fit.

Assay: qHTS screen for small molecules that inhibit ELG1-dependent DNA repair in human embryonic kidney (HEK293T) cells expressing luciferase-tagged ELG1; further: nearly all actives have a fitted effect of over 55% in size
Conditions: HEK293T ELG1-luciferase reporter, luminescence, 16 h, DNA damage induced by 5-fluorouridine; series mostly up to 46.1 µM
Outline: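 Reporter activity after DNA damage by 5-fluorouridine is monitored. Compound-treated cells incubate 16 hr at 37 °C, then ONE-Glo is added for 30 min before luminescence reading.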
Potency means the concentration at half of the fitted maximal effect.

| Compound | Potency |
| --- | --- |
| CCC(=O)Nc1ccc(N2CCOCC2)c(S(=O)(=O)Nc2ccc(Cl)cc2)c1 | inactive |
| O=C(OCC(=O)C12CC3CC(CC(C3)C1)C2)c1ccc(CO)cc1 | inconclusive: 29.1 µM [activator, single point] |
| CC(=O)Nc1ccc(NC(=O)COC(=O)c2cnccn2)cc1 | inactive |
| O=C(Nc1cccnc1)c1cc(-c2ccc(Br)cc2)nc2ccccc12 | inconclusive: 29.1 µM [inhibitor, single point] |
| O=C(Nc1ccc(C(=O)NCC2CCN(Cc3ccccc3F)CC2)cc1)C1=CSCCO1 | inconclusive: 29.1 µM [activator, single point] |
| NC(=S)N/N=C1\CCSc2ccc(Cl)cc21 | inconclusive: 7.3 µM [inhibitor, full curve, poor fit] |
| O=C(Nc1cccc(F)c1)C1CCN(C(=O)c2ccccc2Cl)CC1 | inactive |
| O=C(NC1CCC(O)CC1)c1cccc2cccnc12 (stereo unspecified) | inconclusive: 18.3 µM [activator, partial curve, poor fit] |
| CCCn1c(N)c(N2CCCCC2)c(=O)n(CC(=O)Nc2ccccc2)c1=O | inconclusive: 25.9 µM [activator, single point] |
| O=C(NC1CCCCC1)N(Cc1nc2ccccc2c(=O)[nH]1)C1CCCCC1 | inconclusive: 29.1 µM [inhibitor, single point] |
| O=C(CN1C(=O)c2cccc3cccc1c23)N1CCN(c2ccc(F)cc2)CC1 | inconclusive: 29.1 µM [activator, single point] |
| CCOc1ccc(N(CC(=O)NCCc2ccc(F)cc2)S(=O)(=O)c2ccccc2)cc1 | inconclusive: 29.1 µM [inhibitor, partial curve, poor fit] |
| Cc1ccc(C)c(N=Nc2nc3ccccc3n2C)c1 | inconclusive: 3.66 µM [activator, partial curve] |
| COc1ccc2oc(=O)c(C(=O)NCCc3ccc(OC)c(OC)c3)cc2c1 | inconclusive: 29.1 µM [inhibitor, single point] |
| CCOc1ccc(S(=O)(=O)N2CCN(C(=O)c3cc(C4CC4)nn3-c3ccccc3)CC2)cc1 | inconclusive: 23.1 µM [inhibitor, single point] |
| Nc1nc(NCCO)nc(NC2CCCCC2)c1[N+](=O)[O-] | inactive |
| Cc1nc2ccccc2c(=O)n1-c1ccc(NS(=O)(=O)c2ccccc2)cc1 | inactive |
| CCc1ccc(NC(=S)Nc2cc(OC)c(NC(=O)C(C)C)cc2OC)cc1 | inactive |
| CCOC(=O)c1ccc(NC(=O)c2cc(C)nn2-c2ccccc2)cc1 | inconclusive: 23.1 µM [inhibitor, single point] |
| O=C(CC(SCCO)c1ccc2c(c1)OCO2)c1cccs1 (stereo unspecified) | inconclusive: 8.2 µM [activator, partial curve] |
| COc1ccc2cc3cc(C(=O)NCc4ccccn4)oc3nc2c1 | inconclusive: 0.206 µM [inhibitor, full curve] |
| CN(Cc1cccnc1)Cc1cn(C)nc1-c1ccc(Oc2ccccc2)cc1 | inactive |
| CCc1ccc(/C=C2/SC(=S)N(CCC(=O)Nc3cccc(C(=O)O)c3)C2=O)cc1 | inconclusive: 13 µM [activator, partial curve, poor fit] |
| COc1ccc(C(=O)c2ccc([N+](=O)[O-])cc2)cc1S(=O)(=O)N1CCC(C(=O)O)CC1 | inactive |

18 of the compounds above, as tab-separated lines.
Compound	Potency
CCC(=O)Nc1ccc(N2CCOCC2)c(S(=O)(=O)Nc2ccc(Cl)cc2)c1	inactive
O=C(Nc1cccnc1)c1cc(-c2ccc(Br)cc2)nc2ccccc12	inconclusive: 29.1 µM [inhibitor, single point]
O=C(Nc1ccc(C(=O)NCC2CCN(Cc3ccccc3F)CC2)cc1)C1=CSCCO1	inconclusive: 29.1 µM [activator, single point]
NC(=S)N/N=C1\CCSc2ccc(Cl)cc21	inconclusive: 7.3 µM [inhibitor, full curve, poor fit]
O=C(Nc1cccc(F)c1)C1CCN(C(=O)c2ccccc2Cl)CC1	inactive
O=C(NC1CCC(O)CC1)c1cccc2cccnc12 (stereo unspecified)	inconclusive: 18.3 µM [activator, partial curve, poor fit]
CCCn1c(N)c(N2CCCCC2)c(=O)n(CC(=O)Nc2ccccc2)c1=O	inconclusive: 25.9 µM [activator, single point]
O=C(CN1C(=O)c2cccc3cccc1c23)N1CCN(c2ccc(F)cc2)CC1	inconclusive: 29.1 µM [activator, single point]
CCOc1ccc(N(CC(=O)NCCc2ccc(F)cc2)S(=O)(=O)c2ccccc2)cc1	inconclusive: 29.1 µM [inhibitor, partial curve, poor fit]
Cc1ccc(C)c(N=Nc2nc3ccccc3n2C)c1	inconclusive: 3.66 µM [activator, partial curve]
COc1ccc2oc(=O)c(C(=O)NCCc3ccc(OC)c(OC)c3)cc2c1	inconclusive: 29.1 µM [inhibitor, single point]
Nc1nc(NCCO)nc(NC2CCCCC2)c1[N+](=O)[O-]	inactive
Cc1nc2ccccc2c(=O)n1-c1ccc(NS(=O)(=O)c2ccccc2)cc1	inactive
CCc1ccc(NC(=S)Nc2cc(OC)c(NC(=O)C(C)C)cc2OC)cc1	inactive
COc1ccc2cc3cc(C(=O)NCc4ccccn4)oc3nc2c1	inconclusive: 0.206 µM [inhibitor, full curve]
CN(Cc1cccnc1)Cc1cn(C)nc1-c1ccc(Oc2ccccc2)cc1	inactive
CCc1ccc(/C=C2/SC(=S)N(CCC(=O)Nc3cccc(C(=O)O)c3)C2=O)cc1	inconclusive: 13 µM [activator, partial curve, poor fit]
COc1ccc(C(=O)c2ccc([N+](=O)[O-])cc2)cc1S(=O)(=O)N1CCC(C(=O)O)CC1	inactive

Part of the list above in order of SMILES length, descending:

| Compound | Potency |
| --- | --- |
| CCc1ccc(/C=C2/SC(=S)N(CCC(=O)Nc3cccc(C(=O)O)c3)C2=O)cc1 | inconclusive: 13 µM [activator, partial curve, poor fit] |
| CCC(=O)Nc1ccc(N2CCOCC2)c(S(=O)(=O)Nc2ccc(Cl)cc2)c1 | inactive |
| O=C(NC1CCC(O)CC1)c1cccc2cccnc12 (stereo unspecified) | inconclusive: 18.3 µM [activator, partial curve, poor fit] |

Continued:

| Compound | Potency |
| --- | --- |
| COc1ccccc1Nc1nnc(SCC(=O)N2CC(=O)Nc3ccccc32)s1 | inconclusive: 29.1 µM [inhibitor, partial curve, poor fit] |
| CC1(C)CC(=O)c2sc(NC(=O)c3ccc4ncsc4c3)nc2C1 | inconclusive: 14.6 µM [activator, partial curve] |
| c1ccc(COc2ccc(CN3CCN(c4ccccn4)CC3)cc2)cc1 | inconclusive: 16.4 µM [activator, partial curve] |
| O=C(N=C1SC2CS(=O)(=O)CC2N1c1ccc(F)cc1)C1CC1 (stereo unspecified) | inactive |
| COc1ccc2c(C)cc(SCC(=O)NCCN3C(=O)CSC3=O)nc2c1 | inactive |
| CC(OC(=O)c1cc(=O)[nH]c2ccccc12)C(=O)Nc1ccccc1F (stereo unspecified) | inactive |
| COc1ccc(OCc2nnc(SCC(=O)Nc3ccccc3F)o2)cc1 | inactive |
| COc1ccc(S(=O)(=O)Nc2ccccc2C(=O)N2CCOCC2)cc1F | inactive |
| Cc1nn(-c2ccccc2)c(Cl)c1/C=N/Nc1nnc(C)c(=O)[nH]1 | inactive |
| O=C(NCc1ccco1)NC1CCCCC1 | inconclusive: 7.31 µM [activator, partial curve, poor fit] |
| COc1ccc(/C=N/n2cnc3c(sc(=S)n3-c3ccccc3)c2=O)cc1 | inactive |
| Cc1c(C)c(C)c(S(=O)(=O)Nc2ccc3[nH]c(=O)[nH]c3c2)c(C)c1C | inactive |
| Fc1ccccc1OCCCCSc1ncccn1 | inconclusive: 7.94 µM [activator, partial curve, poor fit] |
| O=C(NCCc1ccccc1F)C1CCCN1S(=O)(=O)c1ccc2ccccc2c1 (stereo unspecified) | inconclusive: 29.1 µM [inhibitor, single point] |
| OCCNCCOCCOc1ccccc1-c1ccccc1 | inactive |
| O=C(O)c1cc(S(=O)(=O)O)cc(Nc2c3ccccc3nc3ccccc23)c1O | inconclusive: 4.11 µM [inhibitor, single point] |
| COc1ccc(C(=O)c2ccc(OC)cc2OC)cc1 | inconclusive: 6.51 µM [inhibitor, single point] |
| CCOC(=O)c1cnc2ccccc2c1Nc1ccc2c(c1)OCCO2 | inconclusive: 14.6 µM [activator, partial curve] |
| O=C(CSc1nc2ccccc2c(=O)n1CC1CCCO1)NCC1CCCO1 (stereo unspecified) | inactive |
| CN1CCN(c2ccc(NC(=O)c3ccc4c(c3)OCO4)cc2)CC1 | inconclusive: 11.6 µM [activator, partial curve] |
| COC(=O)c1cccc(CSc2nnc(C)s2)c1 | inconclusive: 16.4 µM [activator, partial curve] |
| CCn1nc(C(=O)OCC(=O)N(CCC#N)c2ccccc2)c2ccccc2c1=O | inactive |
| O=C(COc1ccc2c(c1)oc(=O)c1ccccc12)NCCCN1CCOCC1 | inconclusive: 25.9 µM [activator, single point] |
| CCOc1ccccc1C(=O)NCC(=O)OCC(=O)c1c(N)n(C)c(=O)n(C)c1=O | inactive |

| Compound | Potency |
| --- | --- |
| COc1ccccc1C(=O)Nc1ccc(OCC(=O)N2CC(C)OC(C)C2)cc1 (stereo unspecified) | inconclusive: 7.08 µM [activator, partial curve, poor fit] |
| C=CCn1c(O)c(N=NC(=S)Nc2ccccc2F)c2ccccc21 | active: 6.51 µM |
| CC(C)(C)OC(=O)NCCCC[C@H](NC(=O)c1nc[nH]c1C(=O)NC1CCN(C(=O)OC(C)(C)C)CC1)C(=O)OC(C)(C)C | active: 16.4 µM |
| COc1ccc(NC(=O)C2CCN(c3cc(-c4ccccc4)nc4ncnn34)CC2)cc1OC | inconclusive: 29.1 µM [inhibitor, single point] |
| CC1CN(CCc2ccccc2)c2nc3c(c(=O)[nH]c(=O)n3C)n2C1 (stereo unspecified) | inconclusive: 35.5 µM [inhibitor, single point] |
| CCCC1(C(=O)OC)NC(c2ccc(OC)c(OC)c2)C2C(=O)N(c3ccc4c(c3)OCO4)C(=O)C21 (stereo unspecified) | inconclusive: 18.4 µM [inhibitor, single point] |
| COc1ccccc1NC(=O)COc1ccc(Br)cc1CO | inconclusive: 25.9 µM [activator, single point] |
| O=S(=O)(NCCC1=CCCCC1)c1ccc(OC(F)(F)F)cc1 | inactive |
| O=C(NCCCN1CCN(Cc2ccccc2)CC1)C1CCN(S(=O)(=O)N2CCC3(CC2)OCCO3)CC1 | inconclusive: 25.9 µM [inhibitor, single point] |
| CCN1CCCC1CN(Cc1cc2cc(C)ccc2[nH]c1=O)C(=O)Nc1ccccc1OC (stereo unspecified) | inconclusive: 16.4 µM [inhibitor, partial curve] |
| Cc1cccc(-c2nc(CS(=O)CC(=O)N3CC(C)CC(C)C3)c(C)o2)c1 (stereo unspecified) | inconclusive: 18.3 µM [inhibitor, partial curve, poor fit] |
| CCOC(=O)c1cc(C#N)c(N2CCN(C(=O)c3ccccc3)CC2)nc1C(F)(F)F | inconclusive: 29.1 µM [inhibitor, single point] |
| CCCCn1nc(C(=O)Nc2ccc3c(c2)OCCO3)c2ccccc2c1=O | inconclusive: 9.2 µM [inhibitor, partial curve, poor fit] |
| O=C(N/N=C/c1cccc(F)c1)c1ccc(Cl)cc1 | inconclusive: 16.4 µM [activator, partial curve] |
| NCCNC(=O)c1c(NC(=O)c2ccccc2)sc2c1CCCC2 | inactive |
| COc1ccc(CC(=O)NC(C)CCc2ccccc2)cc1OC (stereo unspecified) | inactive |
| COc1ccc(CNC2CCCc3ccccc32)cc1OC (stereo unspecified) | inactive |
| CN(c1ccccc1)S(=O)(=O)c1cc(C(=O)N2CCN(c3ncccn3)CC2)ccc1Cl | inconclusive: 23.1 µM [inhibitor, single point] |
| Cc1cc(C)nc(Sc2c(C)nn(-c3ccccc3)c2C)n1 | inactive |
| COc1cc(C#Cc2c(-c3cncn3C)n(C)c3ccc(-c4cc(OC)c(OC)c(OC)c4)cc23)cc(OC)c1 | active: 5.17 µM |
| Oc1c(N=NC(=S)Nc2ccccc2F)c2ccccc2n1Cc1ccccc1F | inconclusive: 20.6 µM [inhibitor, single point] |
| Cc1ccc(N=Nc2c(N)nn3c(C)cc(C)nc23)cc1 | inactive |
| COc1cc2c(C#Cc3cccnc3)c(-c3ccsc3)oc(=O)c2cc1OC | inconclusive: 2.31 µM [inhibitor, partial curve] |
